Results reported in article PMC8202330, “Phosphorylation of the LIR Domain of SCOC Modulates ATG8 Binding Affinity and Specificity” (Journal of Molecular Biology, 2021).
Results are given in words; binding and its absence hold for the method and conditions named. In cells and extracts the contact can be indirect. Some entries that bind do so weakly or less than the wild type. Sequences can lack the tags named with a protein.

The chains behind the UniProt entries cited, without tags or fusion partners. Where a name states a change or a piece, a line headed by the entry shows the natural chain unless it says otherwise. A line that says so, or that is headed by a name, gives the form on record, which may keep a tag or linker.
FLAG-SCOC (isoform 3) (Q9UIL1, form named): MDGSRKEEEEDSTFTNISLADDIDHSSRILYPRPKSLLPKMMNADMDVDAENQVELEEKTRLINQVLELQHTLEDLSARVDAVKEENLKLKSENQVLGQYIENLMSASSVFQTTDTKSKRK

Biological target: FLAG-SCOC (isoform 3) (human) (UniProt Q9UIL1)
Assay: co-IP; FLAG IP of FLAG-tagged SCOC with Anti-FLAG-M2 affinity agarose (Supplementary Figure 3A)

binding: binds
B1: FEZ2 (FLAG IP of Supplementary Figure 3A) (protein, UniProt Q9UHY8 1-353)
chain: MAADGDWQDFYEFQEPARSLLDQENCNASPEPGAEAGAEAGGGADGFPAPACSLEEKLSLCFRPSDPGAEPPRTAVRPITERSLLQGDEIWNALTDNYGNVMPVDWKSSHTRTLHLLTLNLSEKGVSDSLLFDTSDDEELREQLDMHSIIVSCVNDEPLFTADQVIEEIEEMMQESPDPEDDETPTQSDRLSMLSQEIQTLKRSSTGSYEERVKRLSVSELNEILEEIETAIKEYSEELVQQLALRDELEFEKEVKNSFISVLIEVQNKQKEHKETAKKKKKLKNGSSQNGKNERSHMPGTYLTTVIPYEKKNGPPSVEDLQILTKILRAMKEDSEKVPSLLTDYILKVLCPT
